Test results taken from patent publication US12262712B2, “Oxime ether compound and application thereof” (SHENYANG SINOCHEM AGROCHEMICALS R&D CO., LTD., priority 2019, dated 2025).
Some of these results come from one statement about several compounds together.

What was measured:
soybean rust = assay: In vivo pot determination, control effect on soybean rust; settings: 400 ppm, foliar spray
Description: (§1) An in vivo pot determination method was adopted, i.e., a sample of the compound to be tested was dissolved with a small amount of solvent (the type of the solvent may be, for example, acetone, methanol and DMF, and selected according to the capability to dissolve the sample; the volume ratio of the amount of the solvent to the amount of sprayed solution is equal to or less than 0.05), diluted with water containing 0.1% Tween 80 and formulated into a required concentration of solution to be tested. Foliar spray treatment was carried out with the compounds of the present invention at the designed concentrations. A blank control with clear water spray was set and repeated for three times. Disease inoculation was carried out on the second day after the treatment. After inoculation, the plants were placed in a phytotron for moisturizing cultivation (temperature: 25° C. on day, 20° C. at night, relative humidity 95-99%). […] After the control was fully diseased (generally one week), the control effects of the compounds were evaluated. For the result survey, A Manual of Assessment Keys for Plant Diseases compiled by American Phytopathological Society can be referred to, which uses 100-0 for representation. “100” level represents no disease and “0” level represents the most severe disease degree.

cucumber downy mildew = assay: In vivo pot determination, control effect on cucumber downy mildew; settings: 400 ppm, foliar spray
Description: as §1

| SMILES | control effects on soybean rust (soybean rust) | control effects on cucumber downy mildew (cucumber downy mildew) |
| --- | --- | --- |
| N#CC(C#N)=NOCc1csc(N)n1 [Compound 47, ((2-aminothiazole-4-yl)methoxy)iminoimide dicyanide] | ≥ 80% | ≥ 80% |
| N#CC(C#N)=NOCc1csc(NC(=O)c2ccccc2C(F)(F)F)n1 [Compound 20] | ≥ 80% | ≥ 80% |
